From PubChem BioAssay AID256 (DTP/NCI, 2004)
The list does not hold the whole screen: it is rich in T/C values a quarter to a half above the control, in often repeated tests (any T/C) and in doses without a T/C. Further doses and runs are listed elsewhere. T/C is the treated group as % of the vehicle group. Some entries give survivors of the animals treated and no T/C: the source holds a T/C of zero for them, seemingly a mark for toxic or unscored doses. Some survivor counts are full or nearly so, which does not show that the dose was tolerated: the source hardly ever lists a survival T/C far under the control, and the zero likely stands for such cases as well. Counts of survivors are from the toxicity check (mostly the fifth day) where no day follows; animals may have died later. Schedules are NCI's codes, taken here to give the interval after Q, in days (D) or hours (H), and the number of doses after X. Some structures stand for samples that the source files as different forms (salt, stereo form or complex); doses refer to the form tested. Some entries hold several experiments; the values are given in rising order. Where survival is the endpoint, the PubChem record calls one and a half times the control and up active, and a quarter to a half above the control has no call in these data; cut-offs in other NCI protocols can differ. Marks such as (2×) count equal records among those shown.

Test system: CD2F1 mice, L1210 leukemia ip, survival T/C
Test: NCI In Vivo Anticancer Drug Screen. Data for tumor model L1210 Leukemia (intraperitoneal) in CD2F1 (CDF1) mice
Conditions: higher T/C = longer survival
Method: The antitumor activity of compounds was measured in mice bearing transplantable tumors. Survival or tumor size were measured and the results are expressed as the measurement made in the treated group (T) divided by the measurement made in the vehicle treated control group (C). The tumor model used in this assay is L1210 Leukemia (intraperitoneal) in CD2F1 (CDF1) mice

[1] = T/C endpoint: mean survival time, dose: 200.0 mg/kg/injection, schedule: Q04DX003 (ip), vehicle: saline with Tween-80
[2] = T/C endpoint: mean survival time, dose: 400.0 mg/kg/injection, schedule: Q04DX003 (ip), vehicle: saline with Tween-80
[3] = T/C endpoint: median survival time, dose: 4.0 mg/kg/injection, schedule: Q01DX009 (ip), vehicle: water
[4] = T/C endpoint: median survival time, dose: 16.0 mg/kg/injection, schedule: Q01DX009 (ip), vehicle: water
[5] = T/C endpoint: median survival time, dose: 32.0 mg/kg/injection, schedule: Q01DX009 (ip), vehicle: water
[6] = T/C endpoint: mean survival time, dose: 150.0 mg/kg/injection, schedule: Q01DX001 (ip), vehicle: saline
[7] = T/C endpoint: mean survival time, dose: 300.0 mg/kg/injection, schedule: Q01DX001 (ip), vehicle: saline
[8] = T/C endpoint: median survival time, dose: 50.0 mg/kg/injection, schedule: Q01DX009 (ip), vehicle: Klucel (hydroxypropylcellulose) (HPC)
[9] = T/C endpoint: median survival time, dose: 100.0 mg/kg/injection, schedule: Q01DX009 (ip), vehicle: Klucel (hydroxypropylcellulose) (HPC)
[10] = T/C endpoint: mean survival time, dose: 400.0 mg/kg/injection, schedule: Q01DX009 (ip), vehicle: water
[11] = T/C endpoint: mean survival time, dose: 200.0 mg/kg/injection, schedule: Q01DX009 (ip), vehicle: saline with Tween-80
[12] = T/C endpoint: mean survival time, dose: 400.0 mg/kg/injection, schedule: Q04DX003 (ip), vehicle: saline

`CN(C)N=Nc1ccc[n+]([O-])c1` was tested, and the T/C (T/C endpoint: mean survival time, dose: 178.0 mg/kg/injection, schedule: Q01DX001 (ip), vehicle: saline) was 146 % of control, the T/C (T/C endpoint: mean survival time, dose: 267.0 mg/kg/injection, schedule: Q01DX001 (ip), vehicle: saline) was 132 % of control and the survivor count (T/C endpoint: mean survival time, dose: 400.0 mg/kg/injection, schedule: Q01DX001 (ip), vehicle: saline) was 3 of 6. The survivor count (T/C endpoint: mean survival time, dose: 600.0 mg/kg/injection, schedule: Q01DX001 (ip), vehicle: saline) was 1 of 6.
With `CC[As](=O)(O)c1ccc([N+](=O)[O-])cc1` the survivor count (T/C endpoint: mean survival time, dose: 100.0 mg/kg/injection, schedule: Q01DX001 (ip), vehicle: saline with Tween-80) was 3 of 6.
In the case of `CC1CC(C)(C)NC(CC2CCCCC2O)O1` (centres undefined), the survivor count [1] is reported as 3 of 6 and the survivor count [2] is reported as 0 of 6.
`C[n+]1c(-c2cccc(OCCOCCOc3cccc(-c4c5cc(N)ccc5c5ccc(N)cc5[n+]4C)c3)c2)c2cc(N)ccc2c2ccc(N)cc21` was tested, and the T/C [3] was 132 % of control, the T/C (T/C endpoint: median survival time, dose: 8.0 mg/kg/injection, schedule: Q01DX009 (ip), vehicle: water) was 129 % of control and the T/C [4] was 132 % of control. For the same molecule, the survivor count [4] was 6 of 6 and the survivor count [5] was 6 of 6.
In the case of `CCN(CC)N=Nc1ccccc1`, the survivor count [6] is reported as 3 of 6 and the survivor count [7] is reported as 0 of 6.
With `CCN1C(=O)CSC1=S` the survivor count (T/C endpoint: mean survival time, dose: 100.0 mg/kg/injection, schedule: Q04DX002 (ip), vehicle: other) was 3 of 6, the survivor count (T/C endpoint: mean survival time, dose: 200.0 mg/kg/injection, schedule: Q04DX002 (ip), vehicle: other) was 3 of 6 and the survivor count (T/C endpoint: mean survival time, dose: 400.0 mg/kg/injection, schedule: Q01DX009 (ip), vehicle: other) was 0 of 6. For the same molecule, the survivor count (T/C endpoint: mean survival time, dose: 400.0 mg/kg/injection, schedule: Q04DX002 (ip), vehicle: other) was 3 of 6, the survivor count (T/C endpoint: mean survival time, dose: 400.0 mg/kg/injection, schedule: Q04DX003 (ip), vehicle: other) was 2 of 6 and the survivor count (T/C endpoint: mean survival time, dose: 600.0 mg/kg/injection, schedule: Q01DX001 (ip), vehicle: other) was 0 of 6. For the same molecule, the survivor count (T/C endpoint: mean survival time, dose: 600.0 mg/kg/injection, schedule: Q04DX002 (ip), vehicle: other) was 0 of 6 and the survivor count (T/C endpoint: mean survival time, dose: 600.0 mg/kg/injection, schedule: Q04DX003 (ip), vehicle: other) was 0 of 6.
For `COc1ccc2[nH]c3ccc4cc[n+](CCN5CCC(C6CCN(CC[n+]7ccc8ccc9[nH]c%10ccc(OC)cc%10c9c8c7)CC6)CC5)cc4c3c2c1`, the T/C [3] was 135 % of control, the T/C (T/C endpoint: median survival time, dose: 6.25 mg/kg/injection, schedule: Q01DX009 (ip), vehicle: Klucel (hydroxypropylcellulose) (HPC)) was 148, 160, 202, 246 % of control and the T/C (T/C endpoint: median survival time, dose: 8.1 mg/kg/injection, schedule: Q01DX009 (ip), vehicle: water) was 135 % of control. For the same molecule, the T/C (T/C endpoint: median survival time, dose: 12.5 mg/kg/injection, schedule: Q01DX009 (ip), vehicle: Klucel (hydroxypropylcellulose) (HPC)) was 148, 151, 160 (2×), 191 % of control, the T/C (T/C endpoint: median survival time, dose: 25.0 mg/kg/injection, schedule: Q01DX009 (ip), vehicle: Klucel (hydroxypropylcellulose) (HPC)) was 145, 158, 160, 188, 197 % of control and the T/C [5] was 135 % of control. The T/C [8] was 196, 271, 337 % of control, the survivor count [8] was 0 of 6 and 2 of 6 and the survivor count (T/C endpoint: median survival time, dose: 64.0 mg/kg/injection, schedule: Q01DX009 (ip), vehicle: water) was 0 of 6. The survivor count (T/C endpoint: median survival time, dose: 65.0 mg/kg/injection, schedule: Q01DX009 (ip), vehicle: water) was 2 of 6, the T/C [9] was 116 and 164 % of control and the survivor count [9] was 0 of 6. For the same molecule, the survivor count (T/C endpoint: median survival time, dose: 128.0 mg/kg/injection, schedule: Q01DX009 (ip), vehicle: water) was 0 of 6, the survivor count (T/C endpoint: median survival time, dose: 130.0 mg/kg/injection, schedule: Q01DX009 (ip), vehicle: water) was 0 of 6 and the survivor count (T/C endpoint: median survival time, dose: 200.0 mg/kg/injection, schedule: Q01DX009 (ip), vehicle: Klucel (hydroxypropylcellulose) (HPC)) was 0 of 6.
`CC#CCOCC(O)CO` (centres undefined) was tested, and the survivor count [10] was 0 of 6.
`COc1cc(-c2ccc(N)c(OC)c2)ccc1N` was tested, and the survivor count (T/C endpoint: mean survival time, dose: 400.0 mg/kg/injection, schedule: Q01DX009 (ip), vehicle: saline) was 0 of 3 and 0 of 6.
For `O=C=Nc1ccc(N=Nc2ccccc2)cc1`, the survivor count (T/C endpoint: mean survival time, dose: 200.0 mg/kg/injection, schedule: Q01DX001 (ip), vehicle: saline with Tween-80) was 6 of 6.
In the case of `CCOC(=O)C(=O)Nc1cc(C)ccc1C`, the survivor count (T/C endpoint: mean survival time, dose: 50.0 mg/kg/injection, schedule: Q01DX009 (ip), vehicle: saline with Tween-80) is reported as 6 of 6, the survivor count (T/C endpoint: mean survival time, dose: 100.0 mg/kg/injection, schedule: Q01DX009 (ip), vehicle: saline with Tween-80) is reported as 6 of 6 and the survivor count [11] is reported as 6 of 6.
With `CC1=C(C)C(C(=O)O)C1C(=O)O` (centres undefined) the survivor count (T/C endpoint: mean survival time, dose: 400.0 mg/kg/injection, schedule: Q01DX001 (ip), vehicle: saline with Tween-80) was 3 of 6.
`CC(C)(C)C(=O)CC(=O)C(C)(C)C.CC(C)(C)C(=O)CC(=O)C(C)(C)C.[Cu]` was tested, and the survivor count (T/C endpoint: mean survival time, dose: 38.0 mg/kg/injection, schedule: Q01DX009 (ip), vehicle: saline with Tween-80) was 1 of 6.
For `Nc1ccc(-c2ccc(N)cc2O)c(O)c1`, the survivor count [11] was 1 of 3.
With `O=P1(N(CCCl)CCCl)NCCC2(O1)C1CC3CC(C1)CC2C3` (centres undefined) the survivor count (T/C endpoint: mean survival time, dose: 250.0 mg/kg/injection, schedule: Q01DX001 (ip), vehicle: distilled water + Tween-80) was 6 of 6.
For `CN(C)CCCNC(CC#N)CCC#N` (centres undefined), the survivor count [12] was 0 of 6.
With `OCC1OC(n2cnc3c(=S)nc(NO)[nH]c32)C(O)C1O` (centres undefined) the T/C (T/C endpoint: mean survival time, dose: 25.0 mg/kg/injection, schedule: Q01DX005 (ip), vehicle: saline with Tween-80) was 137 % of control and the T/C (T/C endpoint: mean survival time, dose: 50.0 mg/kg/injection, schedule: Q01DX005 (ip), vehicle: saline with Tween-80) was 129 % of control.
With `CNC(=O)OCc1nc(SC)n(C)c1COC(=O)NC` the T/C (T/C endpoint: median survival time, dose: 40.0 mg/kg/injection, schedule: Q01DX005 (ip), vehicle: saline) was 144 % of control, the T/C (T/C endpoint: median survival time, dose: 50.0 mg/kg/injection, schedule: Q01DX005 (ip), vehicle: suspension in saline) was 127 % of control and the T/C (T/C endpoint: median survival time, dose: 80.0 mg/kg/injection, schedule: Q01DX005 (ip), vehicle: saline) was 141 % of control. The T/C (T/C endpoint: median survival time, dose: 100.0 mg/kg/injection, schedule: Q01DX005 (ip), vehicle: saline) was 145 % of control, the T/C (T/C endpoint: median survival time, dose: 100.0 mg/kg/injection, schedule: Q01DX005 (ip), vehicle: suspension in saline) was 145 % of control and the survivor count (T/C endpoint: median survival time, dose: 200.0 mg/kg/injection, schedule: Q01DX005 (ip), vehicle: saline) was 6 of 6.
For `O=S(=O)(F)c1cc(C[P+](c2ccccc2)(c2ccccc2)c2ccccc2)ccc1Cl`, the survivor count (T/C endpoint: mean survival time, dose: 100.0 mg/kg/injection, schedule: Q04DX003 (ip), vehicle: saline with Tween-80) was 2 of 6, the survivor count [1] was 0 of 6 and the survivor count [2] was 0 of 6.
`CCOC(=N)c1cn(C2OC(CO)C(O)C2O)c2nc[nH]c(=O)c12` (centres undefined) was tested, and the survivor count [6] was 1 of 6 and the survivor count [7] was 0 of 6.
For `CC(=O)Nc1ccc2c(Nc3ccc(NS(C)(=O)=O)cc3)c3ccccc3nc2c1`, the survivor count [12] was 4 of 6.
For `CCN(CC)CCCC(C)NS(=O)(=O)c1cccc2c(N(C)C)cccc12` (centres undefined), the survivor count (T/C endpoint: mean survival time, dose: 200.0 mg/kg/injection, schedule: Q01DX009 (ip), vehicle: water) was 0 of 6 and the survivor count [10] was 0 of 6.
For `BrC1=C(Br)C(Br)(Br)C(Br)=C1Br`, the survivor count (T/C endpoint: mean survival time, dose: 10.0 mg/kg/injection, schedule: Q01DX009 (ip), vehicle: saline with Tween-80) was 0 of 6, the survivor count (T/C endpoint: mean survival time, dose: 20.0 mg/kg/injection, schedule: Q01DX009 (ip), vehicle: saline with Tween-80) was 0 of 6 and the survivor count (T/C endpoint: mean survival time, dose: 40.0 mg/kg/injection, schedule: Q01DX009 (ip), vehicle: saline with Tween-80) was 0 of 6.
In the case of `CCCC(=O)NNC(=O)c1ccccn1`, the survivor count (T/C endpoint: mean survival time, dose: 200.0 mg/kg/injection, schedule: Q01DX009 (ip), vehicle: saline sonified) is reported as 6 of 6 and the survivor count (T/C endpoint: mean survival time, dose: 400.0 mg/kg/injection, schedule: Q01DX009 (ip), vehicle: saline sonified) is reported as 1 of 6.
